Data as given in PubChem BioAssay AID1259405 (NCATS, 2018)
Screen: 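Knock-downs that lift recombinant protein yield in hamster ovary cells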 (primary screen). System: Chinese hamster CHO-K1 ovary cells with stable secreted eGFP expression. Knock-down reagent: single siRNA against mouse genes, 0.8 pmol siRNA per well (2 µl of 400 nM stock). Duration: 3 days. Measured: 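Percent of the per-plate non-targeting control median for intracellular GFP per well by laser scanning cytometry and for cell viability by ATP luminescence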. Reading the numbers: GFP, % of control: higher = more GFP per well, higher productivity; viability (ATP), % of control: higher = more viable cells (more ATP). Hit rule: 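a knock-down is called active if GFP reaches 120% or more of non-targeting control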.
The deposit covers about 50,000 reagents; shown is a part drawn at random. About 4,000 of them (8%) count as active. 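Mouse siRNA library applied to hamster cells; one well for each siRNA.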 Reagents against one gene are numbered here.

no.	Target gene	reagent	GFP, % of control	viability (ATP), % of control	activity call
1	Golga7b (GeneID 71146)	1	63.4	51	inactive
2	Golga7b (GeneID 71146)	2	82.7	98.4	inactive
3	Golga7b (GeneID 71146)	3	81.4	139	inactive
4	Mios (GeneID 252875)	1	56.8	64.7	inactive
5	Mios (GeneID 252875)	2	64.5	81.1	inactive
6	Mios (GeneID 252875)	3	108	122	inactive
7	Cd99l2 (GeneID 171486)	1	71.1	73.2	inactive
8	Cd99l2 (GeneID 171486)	2	44.6	53.8	inactive
9	Cd99l2 (GeneID 171486)	3	117	107	inactive
10	Ccng1 (GeneID 12450)	1	62.1	76	inactive
11	Ccng1 (GeneID 12450)	2	75.2	75.8	inactive
12	Acot10 (GeneID 64833)	1	71.1	81.9	inactive
13	Acot10 (GeneID 64833)	2	87.1	97.5	inactive
14	Acot10 (GeneID 64833)	3	51.3	61.6	inactive
15	Csmd1 (GeneID 94109)	1	121	67.6	active
16	Csmd1 (GeneID 94109)	2	91.4	30	inactive
17	Csmd1 (GeneID 94109)	3	104	93	inactive
18	Aacs (GeneID 78894)	1	46.3	93.8	inactive
19	Aacs (GeneID 78894)	2	104	97.6	inactive
20	Aacs (GeneID 78894)	3	113	111	inactive
21	Or4c124 (GeneID 258320)	1	55.1	61.2	inactive
22	Or4c124 (GeneID 258320)	2	98.1	64.6	inactive
23	Or4c124 (GeneID 258320)	3	32.1	87.9	inactive
24	Golm2 (GeneID 319996)	1	59.8	54.9	inactive
25	Golm2 (GeneID 319996)	2	111	78.3	inactive
26	Golm2 (GeneID 319996)	3	81.5	59.8	inactive
27	Slco6c1 (GeneID 74441)	1	54.9	54.5	inactive
28	Slco6c1 (GeneID 74441)	2	40.8	53.4	inactive
29	Slco6c1 (GeneID 74441)	3	62.9	75.5	inactive
30	Ece2 (GeneID 107522)	1	67.2	55.7	inactive
31	Ece2 (GeneID 107522)	2	69.8	103	inactive
32	Ece2 (GeneID 107522)	3	94.6	56.9	inactive
33	Ece2 (GeneID 107522)	4	102	80.6	inactive
34	Ece2 (GeneID 107522)	5	91.5	87.4	inactive
35	Ece2 (GeneID 107522)	6	82.8	71.9	inactive
36	Septin12 (GeneID 71089)	1	70.5	43.7	inactive
37	Septin12 (GeneID 71089)	2	35.3	57.4	inactive
38	Septin12 (GeneID 71089)	3	77.9	67	inactive
39	Nhsl3 (GeneID 97130)	1	83	82.2	inactive
40	Nhsl3 (GeneID 97130)	2	115	26	inactive
41	Nhsl3 (GeneID 97130)	3	91.6	108	inactive
42	Sfswap (GeneID 231769)	1	87.3	76.2	inactive
43	Sfswap (GeneID 231769)	2	78.4	45.6	inactive
44	Sfswap (GeneID 231769)	3	49.5	56.4	inactive
45	Timm22 (GeneID 56322)	1	96.2	33.3	inactive
46	Timm22 (GeneID 56322)	2	104	98.8	inactive
47	Timm22 (GeneID 56322)	3	85.7	104	inactive

5 entries from above, reduced to “GFP, % of control”:
Golga7b (GeneID 71146) #1	63.4
Golga7b (GeneID 71146) #2	82.7
Golga7b (GeneID 71146) #3	81.4
Mios (GeneID 252875) #1	56.8
Mios (GeneID 252875) #2	64.5

The results go on:
no.	Target gene	reagent	GFP, % of control	viability (ATP), % of control	activity call
48	Zfp706 (GeneID 68036)	1	66.7	70.4	inactive
49	Zfp706 (GeneID 68036)	2	77.7	91.3	inactive
50	Zfp706 (GeneID 68036)	3	65.7	46.3	inactive
51	Or10ak16 (GeneID 258331)	1	47.7	49.9	inactive
52	Or10ak16 (GeneID 258331)	2	55.1	64.5	inactive
53	Or10ak16 (GeneID 258331)	3	95.3	79.4	inactive
54	Hhatl (GeneID 74770)	1	85.1	84.5	inactive
55	Hhatl (GeneID 74770)	2	111	94.7	inactive
56	Hhatl (GeneID 74770)	3	71.8	69.2	inactive
57	Ptgir (GeneID 19222)	1	172	85.2	active
58	Ptgir (GeneID 19222)	2	86	74.1	inactive
59	Ptgir (GeneID 19222)	3	109	90	inactive
60	Cldn9 (GeneID 56863)	1	66.7	33.4	inactive
61	Cldn9 (GeneID 56863)	2	149	72.3	active
62	Cldn9 (GeneID 56863)	3	86.2	100	inactive
63	Lamtor1 (GeneID 66508)	1	95.7	71.3	inactive
64	Lamtor1 (GeneID 66508)	2	118	79.8	inactive
65	Lamtor1 (GeneID 66508)	3	68.9	61.3	inactive
66	Iws1 (GeneID 73473)	1	29.4	24.1	inactive
67	Iws1 (GeneID 73473)	2	103	137	inactive
68	Iws1 (GeneID 73473)	3	78.3	57.5	inactive
69	Fv4 (GeneID 14352)	1	98.1	93.9	inactive
70	Fv4 (GeneID 14352)	2	75	80.5	inactive
71	Fv4 (GeneID 14352)	3	115	76.1	inactive
72	Evi5l (GeneID 213027)	1	97.5	84.3	inactive
73	Evi5l (GeneID 213027)	2	70.3	62.1	inactive
74	Evi5l (GeneID 213027)	3	82	79.2	inactive
75	Ier5l (GeneID 72500)	1	104	93.9	inactive
76	Ier5l (GeneID 72500)	2	81	39.2	inactive
77	Ier5l (GeneID 72500)	3	96.5	135	inactive
78	Slc10a5 (GeneID 241877)	1	148	75.8	active
79	Slc10a5 (GeneID 241877)	2	68.5	46.1	inactive
80	Slc10a5 (GeneID 241877)	3	75.2	103	inactive
81	Zfp93 (GeneID 22755)	1	54.6	62.8	inactive
82	Zfp93 (GeneID 22755)	2	77.5	90.6	inactive
83	Zfp93 (GeneID 22755)	3	78	96.8	inactive
84	Hand1 (GeneID 15110)	1	33.1	59.6	inactive
85	Hand1 (GeneID 15110)	2	94.2	85.3	inactive
86	Net1 (GeneID 56349)	1	68.1	59.8	inactive
87	Net1 (GeneID 56349)	2	75.5	85.7	inactive
88	Net1 (GeneID 56349)	3	58.8	59.9	inactive
89	Ceacam1 (GeneID 26365)	1	89.1	45.5	inactive
90	Ceacam1 (GeneID 26365)	2	42.6	73.7	inactive
91	Ceacam1 (GeneID 26365)	3	76.9	70.6	inactive
92	Zar1 (GeneID 317755)	1	52.6	46.7	inactive
93	Zar1 (GeneID 317755)	2	55.4	62.8	inactive
94	Zar1 (GeneID 317755)	3	77.6	103	inactive
95	Tgfb1i1 (GeneID 21804)	1	64.6	49.8	inactive
96	Tgfb1i1 (GeneID 21804)	2	51.7	63.9	inactive
97	Kbtbd7 (GeneID 211255)	1	55.7	59.8	inactive
98	Kbtbd7 (GeneID 211255)	2	77.5	73.8	inactive
99	Kbtbd7 (GeneID 211255)	3	62.2	73	inactive
100	Ccdc174 (GeneID 232236)	1	63	39	inactive
101	Ccdc174 (GeneID 232236)	2	67.5	82.9	inactive
102	Ccdc174 (GeneID 232236)	3	80	95.8	inactive
103	Fbxl13 (GeneID 320118)	1	92.1	71.8	inactive
104	Fbxl13 (GeneID 320118)	2	87	80.5	inactive
105	Fbxl13 (GeneID 320118)	3	98.8	92	inactive
106	Sult2a8 (GeneID 76971)	1	78.9	81.4	inactive
107	Sult2a8 (GeneID 76971)	2	59	45.8	inactive
108	Sult2a8 (GeneID 76971)	3	44.8	81.7	inactive
